Experimental data as given in PMC7090148 (2020).
Substitutions are numbered along the chain they refer to. These are yes or no findings as the source states them, for the method shown. Binding seen in cells or lysates may run through a third protein. Binding can be weak; no strength is given.

Key:
[1] = target: T1, Mouse OFD1, wild type (mouse) (UniProt Q80Z25); assay: co-IP; OFD1 mutants co-expressed with TRAPPC8 or TRAPPC12; IP efficiency as ratio of immunoprecipitated TRAPPC8/OFD1 or TRAPPC12/OFD1; cell line and IP antibody not stated for this panel
T1 sequence: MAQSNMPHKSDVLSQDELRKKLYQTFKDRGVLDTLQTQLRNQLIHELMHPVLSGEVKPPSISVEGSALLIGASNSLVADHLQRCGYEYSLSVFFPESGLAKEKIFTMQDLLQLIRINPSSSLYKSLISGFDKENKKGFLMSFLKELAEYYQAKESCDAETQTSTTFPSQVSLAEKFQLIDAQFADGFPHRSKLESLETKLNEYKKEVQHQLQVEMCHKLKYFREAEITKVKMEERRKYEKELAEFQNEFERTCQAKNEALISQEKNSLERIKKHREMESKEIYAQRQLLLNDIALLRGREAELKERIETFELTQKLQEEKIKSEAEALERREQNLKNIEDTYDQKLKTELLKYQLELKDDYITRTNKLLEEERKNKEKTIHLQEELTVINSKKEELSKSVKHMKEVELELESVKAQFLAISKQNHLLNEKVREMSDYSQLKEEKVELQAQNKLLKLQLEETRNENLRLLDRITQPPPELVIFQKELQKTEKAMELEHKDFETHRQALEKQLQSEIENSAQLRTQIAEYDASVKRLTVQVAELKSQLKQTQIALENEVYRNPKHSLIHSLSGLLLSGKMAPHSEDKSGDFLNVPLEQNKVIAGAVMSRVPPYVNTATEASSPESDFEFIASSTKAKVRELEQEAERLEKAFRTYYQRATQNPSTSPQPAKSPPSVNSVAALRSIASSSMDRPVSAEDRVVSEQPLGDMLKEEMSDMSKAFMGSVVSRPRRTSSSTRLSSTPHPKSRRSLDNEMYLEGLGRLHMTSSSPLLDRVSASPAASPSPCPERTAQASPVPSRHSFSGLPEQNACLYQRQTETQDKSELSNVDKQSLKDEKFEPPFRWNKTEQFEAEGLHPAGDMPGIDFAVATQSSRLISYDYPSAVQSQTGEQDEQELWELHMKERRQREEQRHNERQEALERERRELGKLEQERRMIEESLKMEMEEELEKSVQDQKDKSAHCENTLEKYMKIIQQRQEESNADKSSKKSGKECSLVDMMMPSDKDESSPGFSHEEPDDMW

[2] = target: T2, Mouse OFD1 S75F (mouse) (UniProt Q80Z25); assay: as above
T2 sequence: T1 sequence with S73F

NTAP-tagged TRAPPC8 (mouse)
binding [1]: binds | binding [2]: binds
